The assay deals with T1, Themis (thymocyte-expressed molecule involved in selection), endogenous wild type (mouse (endogenous in thymocytes)) (UniProt Q8BGW0).
T1 sequence: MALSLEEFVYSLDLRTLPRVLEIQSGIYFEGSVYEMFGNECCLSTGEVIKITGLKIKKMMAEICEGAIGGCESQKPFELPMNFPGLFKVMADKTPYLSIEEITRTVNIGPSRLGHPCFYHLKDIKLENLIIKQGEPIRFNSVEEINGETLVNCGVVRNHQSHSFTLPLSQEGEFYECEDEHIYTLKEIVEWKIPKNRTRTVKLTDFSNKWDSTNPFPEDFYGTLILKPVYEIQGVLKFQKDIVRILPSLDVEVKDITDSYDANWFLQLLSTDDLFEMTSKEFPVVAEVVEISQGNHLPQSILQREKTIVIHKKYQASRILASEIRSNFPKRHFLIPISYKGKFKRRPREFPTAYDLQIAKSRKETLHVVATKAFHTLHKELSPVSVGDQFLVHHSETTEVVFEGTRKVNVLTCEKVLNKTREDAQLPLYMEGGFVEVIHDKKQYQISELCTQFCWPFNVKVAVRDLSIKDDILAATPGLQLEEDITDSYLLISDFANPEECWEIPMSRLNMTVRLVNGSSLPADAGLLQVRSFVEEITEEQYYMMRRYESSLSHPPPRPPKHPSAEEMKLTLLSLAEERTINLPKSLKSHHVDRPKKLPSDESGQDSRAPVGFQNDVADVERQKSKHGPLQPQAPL
The experiment in a line: co-IP; mouse thymocytes, unstimulated or stimulated with anti-CD3 plus anti-CD4 (Fig. S3: also anti-CD8) antibodies; lysis buffer 50 mM Tris-HCl pH 7.5, 150 mM NaCl, 10 mM MgCl2, 0.5% Nonidet P-40; immunoprecipitated with anti-Themis antibody on protein G-sepharose, immunoblot. (In general: A western blot detects proteins with antibodies after separation by electrophoresis.)

Results are given in words; binding and its absence hold for the method and conditions named. Binding seen in cells or lysates may run through a third protein. Binding calls can cover weak binding; strength is not graded here.

Our source for the binding values is PMC3931654.

SOS (mouse (endogenous in thymocytes)): the binding result is reported as “binds”.
